Data from publication PMC5004123.
Results are given in words; binding and its absence hold for the method and conditions named. Binding seen in cells or lysates may run through a third protein. Some binding calls cover weakened binding; strength is not graded here.

By UniProt entry, the sequences of proteins in these tests, tags left out. Residues count along the entry.
UniProt Q62151, residues 23-402: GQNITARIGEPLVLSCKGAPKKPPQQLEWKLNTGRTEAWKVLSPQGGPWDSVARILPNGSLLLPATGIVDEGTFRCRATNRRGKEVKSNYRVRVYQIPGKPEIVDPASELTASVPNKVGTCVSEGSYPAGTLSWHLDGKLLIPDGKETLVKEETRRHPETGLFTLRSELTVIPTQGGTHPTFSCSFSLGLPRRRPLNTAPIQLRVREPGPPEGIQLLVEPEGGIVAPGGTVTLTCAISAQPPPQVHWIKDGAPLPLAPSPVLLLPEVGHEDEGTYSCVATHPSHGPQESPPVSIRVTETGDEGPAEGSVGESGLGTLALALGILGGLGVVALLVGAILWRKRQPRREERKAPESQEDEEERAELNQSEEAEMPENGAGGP

Target: receptor for advanced glycation end products (RAGE) (mouse (endogenous in MLVECs)) (UniProt Q62151)
Experiment: co-IP; MLVECs cultured with or without 100 ng/mL HMGB1 for 1 h; lysed in RIPA buffer; lysates pre-cleared with normal IgG and Protein A+G Agarose beads, then incubated with anti-Cav-1 or anti-RAGE antibodies and Protein A+G Agarose beads overnight at 4 °C; 3 washes with PBS; immunoblotting

binding: binds
B1: caveolin (Cav)-1 (protein, UniProt P49817 1-178)
chain: MSGGKYVDSEGHLYTVPIREQGNIYKPNNKAMADEVTEKQVYDAHTKEIDLVNRDPKHLNDDVVKIDFEDVIAEPEGTHSFDGIWKASFTTFTVTKYWFYRLLSTIFGIPMALIWGIYFAILSFLHIWAVVPCIKSFLIEIQCISRVYSIYVHTFCDPLFEAIGKIFSNIRISTQKEI
